Earlier results as cited in US20200245666A1, “CANNABINOID EMULSIONS, BEVERAGES AND FOODS” (Lighthouse Strategies, LLC, priority 2019, published 2020).
Some results were stated once for a whole list of compounds, not compound by compound.

Conditions: certain vaporizers; Lanz (2016)

Question: With `C=C(C)[C@@H]1CCC(C)=C[C@H]1c1c(O)cc(CCCCC)cc1O` [CBD, cannabidiol] as the compound, how does the bioavailability read?
Answer: Its bioavailability is 50-80%.
